The other results are listed elsewhere or left out. Most entries show no effect beyond the scatter of the controls.

Amino acid sequences for entries named in this document (tags omitted). A change or cut given only in a name is not applied to a line headed by its entry.
UniProt Q9Y3M9: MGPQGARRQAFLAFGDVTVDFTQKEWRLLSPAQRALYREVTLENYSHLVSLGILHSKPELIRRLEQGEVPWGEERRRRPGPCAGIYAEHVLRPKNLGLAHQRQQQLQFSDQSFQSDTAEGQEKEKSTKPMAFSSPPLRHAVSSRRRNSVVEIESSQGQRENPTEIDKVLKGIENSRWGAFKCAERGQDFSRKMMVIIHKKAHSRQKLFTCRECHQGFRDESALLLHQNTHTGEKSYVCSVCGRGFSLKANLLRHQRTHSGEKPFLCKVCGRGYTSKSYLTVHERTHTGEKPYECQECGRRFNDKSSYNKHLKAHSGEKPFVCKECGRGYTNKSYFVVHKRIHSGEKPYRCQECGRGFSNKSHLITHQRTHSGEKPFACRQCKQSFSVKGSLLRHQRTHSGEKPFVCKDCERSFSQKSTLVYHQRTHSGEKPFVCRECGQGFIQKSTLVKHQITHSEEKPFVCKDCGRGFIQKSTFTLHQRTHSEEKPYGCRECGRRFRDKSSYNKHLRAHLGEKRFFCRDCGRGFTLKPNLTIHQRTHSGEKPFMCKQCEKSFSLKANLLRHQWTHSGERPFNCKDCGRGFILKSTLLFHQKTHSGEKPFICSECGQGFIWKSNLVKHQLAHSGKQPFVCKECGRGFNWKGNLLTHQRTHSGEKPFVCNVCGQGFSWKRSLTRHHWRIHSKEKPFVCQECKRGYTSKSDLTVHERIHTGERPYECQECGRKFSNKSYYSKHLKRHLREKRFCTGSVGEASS
UniProt Q9Y6H3: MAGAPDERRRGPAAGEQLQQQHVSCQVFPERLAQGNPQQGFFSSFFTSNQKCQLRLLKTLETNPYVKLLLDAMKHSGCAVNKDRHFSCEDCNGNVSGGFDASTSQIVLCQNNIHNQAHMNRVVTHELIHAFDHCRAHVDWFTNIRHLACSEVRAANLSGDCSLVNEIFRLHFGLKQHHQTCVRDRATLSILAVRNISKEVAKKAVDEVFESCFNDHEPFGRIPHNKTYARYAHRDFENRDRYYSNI
UniProt Q9Y5Q8: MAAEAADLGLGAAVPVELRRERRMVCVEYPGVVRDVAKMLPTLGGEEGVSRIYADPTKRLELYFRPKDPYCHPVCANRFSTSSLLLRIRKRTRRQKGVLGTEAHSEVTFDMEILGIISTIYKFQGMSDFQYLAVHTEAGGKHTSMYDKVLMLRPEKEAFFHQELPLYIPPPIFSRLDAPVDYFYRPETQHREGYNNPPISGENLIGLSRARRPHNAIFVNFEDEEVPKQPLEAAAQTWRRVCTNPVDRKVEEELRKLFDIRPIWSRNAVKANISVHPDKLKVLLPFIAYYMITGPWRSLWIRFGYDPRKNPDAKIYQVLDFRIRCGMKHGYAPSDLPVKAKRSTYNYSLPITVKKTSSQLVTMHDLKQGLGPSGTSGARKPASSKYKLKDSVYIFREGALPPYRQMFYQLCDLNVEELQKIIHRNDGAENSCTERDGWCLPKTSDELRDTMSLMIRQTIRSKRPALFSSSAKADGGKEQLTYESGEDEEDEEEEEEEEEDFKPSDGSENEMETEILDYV
UniProt Q9Y312: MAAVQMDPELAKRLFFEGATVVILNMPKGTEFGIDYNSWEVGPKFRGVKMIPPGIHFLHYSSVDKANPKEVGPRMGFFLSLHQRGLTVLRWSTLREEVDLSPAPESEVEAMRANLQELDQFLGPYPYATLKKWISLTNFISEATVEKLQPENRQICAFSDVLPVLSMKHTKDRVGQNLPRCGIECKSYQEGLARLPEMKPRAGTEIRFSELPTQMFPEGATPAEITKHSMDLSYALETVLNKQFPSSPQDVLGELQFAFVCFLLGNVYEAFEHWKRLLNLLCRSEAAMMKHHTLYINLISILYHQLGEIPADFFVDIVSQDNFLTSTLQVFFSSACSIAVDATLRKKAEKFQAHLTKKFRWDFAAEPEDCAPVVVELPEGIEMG
UniProt Q9Y5V0: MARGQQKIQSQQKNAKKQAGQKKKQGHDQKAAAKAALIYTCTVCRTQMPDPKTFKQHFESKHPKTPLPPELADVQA
UniProt Q9Y2R4: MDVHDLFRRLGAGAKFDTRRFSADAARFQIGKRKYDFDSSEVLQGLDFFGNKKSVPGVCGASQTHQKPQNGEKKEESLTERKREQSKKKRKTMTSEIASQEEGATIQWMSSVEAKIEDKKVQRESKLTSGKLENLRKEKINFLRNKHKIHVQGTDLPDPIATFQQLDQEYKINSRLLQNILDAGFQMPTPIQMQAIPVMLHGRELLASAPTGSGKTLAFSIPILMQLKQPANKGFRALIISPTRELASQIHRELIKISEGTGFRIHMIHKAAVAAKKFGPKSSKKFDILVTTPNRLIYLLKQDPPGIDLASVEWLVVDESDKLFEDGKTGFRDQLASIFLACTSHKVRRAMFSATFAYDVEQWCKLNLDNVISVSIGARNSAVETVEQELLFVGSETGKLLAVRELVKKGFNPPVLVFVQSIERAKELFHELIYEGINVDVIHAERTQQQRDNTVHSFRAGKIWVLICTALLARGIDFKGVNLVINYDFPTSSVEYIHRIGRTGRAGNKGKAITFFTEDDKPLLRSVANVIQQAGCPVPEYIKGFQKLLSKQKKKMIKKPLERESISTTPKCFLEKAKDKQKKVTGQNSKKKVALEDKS
UniProt Q9Y2H9: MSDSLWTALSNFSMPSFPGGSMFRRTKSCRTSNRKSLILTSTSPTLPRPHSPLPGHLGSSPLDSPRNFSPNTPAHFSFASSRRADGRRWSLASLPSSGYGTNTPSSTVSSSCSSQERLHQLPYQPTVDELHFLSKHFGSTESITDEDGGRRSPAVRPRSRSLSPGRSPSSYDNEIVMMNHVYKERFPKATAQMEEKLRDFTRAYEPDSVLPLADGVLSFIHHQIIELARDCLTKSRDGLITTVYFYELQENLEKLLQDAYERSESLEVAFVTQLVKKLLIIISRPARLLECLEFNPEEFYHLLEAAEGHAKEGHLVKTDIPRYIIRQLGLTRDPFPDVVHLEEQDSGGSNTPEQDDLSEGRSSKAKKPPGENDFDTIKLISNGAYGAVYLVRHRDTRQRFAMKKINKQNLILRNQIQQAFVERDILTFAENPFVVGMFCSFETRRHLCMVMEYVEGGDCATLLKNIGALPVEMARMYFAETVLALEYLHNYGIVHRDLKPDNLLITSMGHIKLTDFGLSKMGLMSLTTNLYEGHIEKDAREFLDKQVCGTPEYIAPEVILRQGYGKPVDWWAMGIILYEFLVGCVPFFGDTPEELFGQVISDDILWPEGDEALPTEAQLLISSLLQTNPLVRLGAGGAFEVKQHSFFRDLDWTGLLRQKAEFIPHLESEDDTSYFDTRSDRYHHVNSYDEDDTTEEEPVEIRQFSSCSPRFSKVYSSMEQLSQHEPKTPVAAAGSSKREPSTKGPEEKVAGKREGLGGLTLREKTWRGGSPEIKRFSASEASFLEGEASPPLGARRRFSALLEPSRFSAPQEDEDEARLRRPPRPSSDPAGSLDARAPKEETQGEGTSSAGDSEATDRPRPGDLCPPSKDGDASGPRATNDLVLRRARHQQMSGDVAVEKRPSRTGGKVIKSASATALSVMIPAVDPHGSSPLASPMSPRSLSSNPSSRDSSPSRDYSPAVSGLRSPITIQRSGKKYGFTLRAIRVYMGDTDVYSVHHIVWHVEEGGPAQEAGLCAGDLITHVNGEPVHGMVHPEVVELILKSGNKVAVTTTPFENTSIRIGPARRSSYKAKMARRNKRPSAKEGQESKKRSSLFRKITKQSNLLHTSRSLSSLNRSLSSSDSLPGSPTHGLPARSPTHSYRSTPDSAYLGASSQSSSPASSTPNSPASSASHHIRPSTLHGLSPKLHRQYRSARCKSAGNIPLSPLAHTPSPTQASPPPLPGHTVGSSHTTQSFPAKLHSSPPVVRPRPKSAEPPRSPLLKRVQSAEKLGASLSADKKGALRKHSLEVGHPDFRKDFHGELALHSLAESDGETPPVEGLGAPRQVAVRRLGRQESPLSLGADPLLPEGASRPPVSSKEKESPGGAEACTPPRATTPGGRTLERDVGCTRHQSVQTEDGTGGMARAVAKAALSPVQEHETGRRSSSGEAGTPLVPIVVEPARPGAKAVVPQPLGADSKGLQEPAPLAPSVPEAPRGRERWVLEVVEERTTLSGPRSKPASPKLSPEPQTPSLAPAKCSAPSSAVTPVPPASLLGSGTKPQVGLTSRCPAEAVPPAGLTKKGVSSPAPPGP
UniProt Q9Y385: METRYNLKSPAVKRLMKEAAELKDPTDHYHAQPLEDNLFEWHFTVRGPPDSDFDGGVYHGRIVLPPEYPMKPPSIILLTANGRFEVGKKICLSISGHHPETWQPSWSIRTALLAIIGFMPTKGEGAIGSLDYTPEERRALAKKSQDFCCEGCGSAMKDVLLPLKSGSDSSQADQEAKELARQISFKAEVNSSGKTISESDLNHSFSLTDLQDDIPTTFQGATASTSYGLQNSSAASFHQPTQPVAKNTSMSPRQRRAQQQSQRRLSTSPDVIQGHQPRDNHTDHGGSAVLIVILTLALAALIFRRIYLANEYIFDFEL
UniProt Q9Y5U2: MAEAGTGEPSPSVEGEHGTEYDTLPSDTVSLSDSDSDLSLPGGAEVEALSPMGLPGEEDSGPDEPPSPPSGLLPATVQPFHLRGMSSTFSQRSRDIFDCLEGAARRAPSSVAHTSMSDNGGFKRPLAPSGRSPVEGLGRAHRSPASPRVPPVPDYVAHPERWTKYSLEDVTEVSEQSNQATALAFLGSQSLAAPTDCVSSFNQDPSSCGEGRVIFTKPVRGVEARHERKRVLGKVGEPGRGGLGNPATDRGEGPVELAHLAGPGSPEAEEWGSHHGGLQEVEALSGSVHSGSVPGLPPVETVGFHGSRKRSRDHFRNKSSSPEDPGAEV
UniProt Q9Y383: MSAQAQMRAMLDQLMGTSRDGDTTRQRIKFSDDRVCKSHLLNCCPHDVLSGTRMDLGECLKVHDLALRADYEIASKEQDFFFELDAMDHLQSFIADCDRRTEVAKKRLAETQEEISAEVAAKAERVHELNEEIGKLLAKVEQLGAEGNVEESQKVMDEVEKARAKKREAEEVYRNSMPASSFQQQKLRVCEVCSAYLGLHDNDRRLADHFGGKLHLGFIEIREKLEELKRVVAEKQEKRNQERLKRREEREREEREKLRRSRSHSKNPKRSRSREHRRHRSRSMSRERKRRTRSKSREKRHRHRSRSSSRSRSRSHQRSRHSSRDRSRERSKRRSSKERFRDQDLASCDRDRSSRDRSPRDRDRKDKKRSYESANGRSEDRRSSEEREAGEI
UniProt Q9Y2T3: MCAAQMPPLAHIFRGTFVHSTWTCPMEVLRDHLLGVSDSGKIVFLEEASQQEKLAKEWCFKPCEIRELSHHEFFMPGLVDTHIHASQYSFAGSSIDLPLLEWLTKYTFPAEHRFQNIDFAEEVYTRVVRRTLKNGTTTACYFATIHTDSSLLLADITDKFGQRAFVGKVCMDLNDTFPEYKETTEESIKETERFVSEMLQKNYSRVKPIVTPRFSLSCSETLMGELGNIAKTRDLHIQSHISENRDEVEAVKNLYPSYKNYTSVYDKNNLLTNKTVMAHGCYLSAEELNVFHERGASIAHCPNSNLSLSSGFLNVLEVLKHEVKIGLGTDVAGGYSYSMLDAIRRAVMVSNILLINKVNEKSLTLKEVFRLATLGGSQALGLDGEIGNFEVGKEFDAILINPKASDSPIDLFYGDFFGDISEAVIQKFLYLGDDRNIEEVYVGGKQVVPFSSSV
UniProt Q9Y421: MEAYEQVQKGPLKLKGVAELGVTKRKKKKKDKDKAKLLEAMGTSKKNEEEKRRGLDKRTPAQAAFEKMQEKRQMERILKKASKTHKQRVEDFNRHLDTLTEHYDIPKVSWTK
UniProt Q9Y446: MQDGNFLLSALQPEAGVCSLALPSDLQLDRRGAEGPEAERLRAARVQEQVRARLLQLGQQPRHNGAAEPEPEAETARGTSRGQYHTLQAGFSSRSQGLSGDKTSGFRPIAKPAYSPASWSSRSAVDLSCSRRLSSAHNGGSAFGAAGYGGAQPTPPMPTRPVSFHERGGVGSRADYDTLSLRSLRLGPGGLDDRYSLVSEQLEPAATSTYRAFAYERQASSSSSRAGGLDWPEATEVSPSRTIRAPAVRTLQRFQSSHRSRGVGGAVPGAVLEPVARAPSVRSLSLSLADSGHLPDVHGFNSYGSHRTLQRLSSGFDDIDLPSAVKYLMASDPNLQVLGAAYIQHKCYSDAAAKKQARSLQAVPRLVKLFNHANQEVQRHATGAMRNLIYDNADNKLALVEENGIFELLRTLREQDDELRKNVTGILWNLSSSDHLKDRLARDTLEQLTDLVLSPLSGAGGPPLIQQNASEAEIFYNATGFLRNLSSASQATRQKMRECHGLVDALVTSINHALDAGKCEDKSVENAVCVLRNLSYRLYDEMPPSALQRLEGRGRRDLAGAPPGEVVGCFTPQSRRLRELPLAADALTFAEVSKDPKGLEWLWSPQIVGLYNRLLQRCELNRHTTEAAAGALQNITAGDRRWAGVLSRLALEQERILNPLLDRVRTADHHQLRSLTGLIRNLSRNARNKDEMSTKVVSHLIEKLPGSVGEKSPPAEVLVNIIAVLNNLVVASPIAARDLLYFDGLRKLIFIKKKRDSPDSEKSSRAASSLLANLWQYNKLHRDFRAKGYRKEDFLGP

Compound in this assay: Cc1nc(Nc2ncc(C(=O)Nc3c(C)cccc3Cl)s2)cc(N2CCN(CCO)CC2)n1 [dasatinib]
In words: log2 fold change of tryptic peptide abundance, ligand vs vehicle (limited proteolysis) (log2 ratio); higher = more trypsin-susceptible (destabilized). Conditions: ligand concentration: 5 uM; sample: K562 cleared lysate.
Turning to “CABIN1 (peptide sequence: KISEESGETAK, peptide start residue: 381) (UniProt Q9Y6J0)”, the log2 fold change was found to be 0.66.

On to “SUGT1 (peptide sequence: SLELNPNNSTAMLRK, peptide start residue: 71) (UniProt Q9Y2Z0)”, for which the log2 fold change was -0.202.

“EID1 (peptide sequence: VSAALEEADKMFLR, peptide start residue: 124) (UniProt Q9Y6B2)”: the log2 fold change worked out at 0.23.

In the case of “CFL2 (peptide sequence: AVLFCLSDDKR, peptide start residue: 35) (UniProt Q9Y281)”, the log2 fold change is -0.272.

Take “RABGAP1 (peptide sequence: CREFFNK, peptide start residue: 972) (UniProt Q9Y3P9)”: the log2 fold change is -0.583.

As to “SAR1B (peptide sequence: LVFLGLDNAGK, peptide start residue: 28) (UniProt Q9Y6B6)”, the log2 fold change was -0.345.

With “CTDP1 (peptide sequence: EGVPPTALFHPMPVLPK, peptide start residue: 748) (UniProt Q9Y5B0)”, the log2 fold change was determined as 0.279.

As for “UniProt Q9Y3M9 (peptide sequence: NLGLAHQR, peptide start residue: 95)”, the log2 fold change was found to be 0.312.

Turning to “SSX2IP (peptide sequence: QDHEQETEKLELEIQQCK, peptide start residue: 377) (UniProt Q9Y2D8)”, the log2 fold change is 0.382.

For “PLEKHM1 (peptide sequence: SWISEDDFYRPSR, peptide start residue: 440) (UniProt Q9Y4G2)”, the log2 fold change was -0.0471.

For the target “UniProt Q9Y6H3 (peptide sequence: RGPAAGEQLQQQHVSCQVFPER, peptide start residue: 10)”, the log2 fold change amounted to 0.166.

Turning to “GTF3C5 (peptide sequence: LKDSVYIFR, peptide start residue: 388) (UniProt Q9Y5Q8)”, the log2 fold change is -0.148.

Consider “UBIAD1 (peptide sequence: INILSGETVK, peptide start residue: 11) (UniProt Q9Y5Z9)”, for which the log2 fold change is -0.0121.

“AFG3L2 (peptide sequence: HFEQAIER, peptide start residue: 544) (UniProt Q9Y4W6)”: the log2 fold change is 0.317.

On to “UniProt Q9Y312 (peptide sequence: DRVGQNLPR, peptide start residue: 172)”, for which the log2 fold change amounted to 0.0571.

For the target “RNF115 (peptide sequence: GHQTHTDFWGARPPR, peptide start residue: 106) (UniProt Q9Y4L5)”, the log2 fold change is -0.131.

Take “WDR7 (peptide sequence: GGSFLTGKR, peptide start residue: 730) (UniProt Q9Y4E6)”: the log2 fold change came to 0.446.

For the target “FLVCR1 (peptide sequence: ARPDDEEGAAVAPGHPLAK, peptide start residue: 2) (UniProt Q9Y5Y0)”, the log2 fold change is -0.254.

For “ATG4B (peptide sequence: DSYYSIHQIAQMGVGEGK, peptide start residue: 120) (UniProt Q9Y4P1)”, the log2 fold change was 0.189.

“UniProt Q9Y5V0 (peptide sequence: AALIYTCTVCR, peptide start residue: 35)”: the log2 fold change was -0.0137.

Turning to “SPIN1 (peptide sequence: SSVGPSKPVSQPR, peptide start residue: 38) (UniProt Q9Y657)”, the log2 fold change stood at 0.134.

Consider “ACOT9 (peptide sequence: SLEICHPQER, peptide start residue: 295) (UniProt Q9Y305)”, for which the log2 fold change is -0.149.

Regarding “DDX52 (peptide sequence: EESLTER, peptide start residue: 75) (UniProt Q9Y2R4)”, the log2 fold change is -0.174.

With “MAST1 (peptide sequence: DLKPDNLLITSMGHIK, peptide start residue: 635) (UniProt Q9Y2H9)”, the log2 fold change was 0.171.

Regarding “SCIN (peptide sequence: GKDANPQER, peptide start residue: 298) (UniProt Q9Y6U3)”, the log2 fold change worked out at 0.555.

As to “ATP11B (peptide sequence: CSPTHISR, peptide start residue: 1144) (UniProt Q9Y2G3)”, the log2 fold change is -0.256.

Turning to “UBE2J1 (peptide sequence: RLSTSPDVIQGHQPR, peptide start residue: 264) (UniProt Q9Y385)”, the log2 fold change is -0.3.

Consider “STARD10 (peptide sequence: LAASTEPQGPRPVLGR, peptide start residue: 4) (UniProt Q9Y365)”, for which the log2 fold change was -0.0566.

For “STXBP5L (peptide sequence: HAHELMLK, peptide start residue: 1170) (UniProt Q9Y2K9)”, the log2 fold change was found to be 0.0257.

On to “TSSC4 (peptide sequence: GGLGNPATDR, peptide start residue: 241) (UniProt Q9Y5U2)”, for which the log2 fold change is -0.221.

“LUC7L2 (peptide sequence: VVAEKQEKR, peptide start residue: 231) (UniProt Q9Y383)”: the log2 fold change is -0.41.

In the case of “GDA (peptide sequence: DLHIQSHISENRDEVEAVK, peptide start residue: 234) (UniProt Q9Y2T3)”, the log2 fold change worked out at 0.0575.

As to “MRPS17 (peptide sequence: LVLDPYLLK, peptide start residue: 33) (UniProt Q9Y2R5)”, the log2 fold change came to 0.0396.

For the target “FAM32A (peptide sequence: LLEAMGTSK, peptide start residue: 37) (UniProt Q9Y421)”, the log2 fold change is -0.0738.

Regarding “MRPS28 (peptide sequence: HSPLTQMGPAK, peptide start residue: 86) (UniProt Q9Y2Q9)”, the log2 fold change is -0.106.

As to “MRPS2 (peptide sequence: HRFMEPYIFGSR, peptide start residue: 99) (UniProt Q9Y399)”, the log2 fold change came out at 0.538.

Take “PKP3 (peptide sequence: GAEGPEAER, peptide start residue: 32) (UniProt Q9Y446)”: the log2 fold change is -0.301.
